We go through two molecules from PMC6839751.

Amino acid sequences for entries named in this document (tags omitted).
UniProt O00327: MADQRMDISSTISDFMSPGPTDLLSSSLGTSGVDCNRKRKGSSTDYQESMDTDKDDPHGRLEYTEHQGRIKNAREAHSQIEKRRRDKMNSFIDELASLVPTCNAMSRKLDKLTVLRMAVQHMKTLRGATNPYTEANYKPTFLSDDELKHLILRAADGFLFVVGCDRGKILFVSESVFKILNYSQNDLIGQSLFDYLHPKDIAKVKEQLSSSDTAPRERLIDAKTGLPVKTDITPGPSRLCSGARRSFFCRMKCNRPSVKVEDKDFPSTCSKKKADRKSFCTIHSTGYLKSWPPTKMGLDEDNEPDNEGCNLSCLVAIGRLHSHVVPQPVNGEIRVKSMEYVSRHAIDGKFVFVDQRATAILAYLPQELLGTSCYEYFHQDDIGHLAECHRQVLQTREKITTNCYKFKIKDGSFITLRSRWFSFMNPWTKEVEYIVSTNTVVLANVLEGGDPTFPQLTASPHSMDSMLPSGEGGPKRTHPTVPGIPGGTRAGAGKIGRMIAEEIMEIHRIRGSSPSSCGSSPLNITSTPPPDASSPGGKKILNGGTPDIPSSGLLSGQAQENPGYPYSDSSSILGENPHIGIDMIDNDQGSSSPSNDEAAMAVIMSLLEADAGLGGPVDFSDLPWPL

Results are given in words; binding and its absence hold for the method and conditions named. Binding seen in cells or lysates may run through a third protein. Some entries that bind do so weakly or less than the wild type.

Assay [1] has as its target T1, circadian locomotor output cycles kaput (CLOCK) (human (endogenous in OSCC cell lines)) (UniProt O15516).
T1 sequence: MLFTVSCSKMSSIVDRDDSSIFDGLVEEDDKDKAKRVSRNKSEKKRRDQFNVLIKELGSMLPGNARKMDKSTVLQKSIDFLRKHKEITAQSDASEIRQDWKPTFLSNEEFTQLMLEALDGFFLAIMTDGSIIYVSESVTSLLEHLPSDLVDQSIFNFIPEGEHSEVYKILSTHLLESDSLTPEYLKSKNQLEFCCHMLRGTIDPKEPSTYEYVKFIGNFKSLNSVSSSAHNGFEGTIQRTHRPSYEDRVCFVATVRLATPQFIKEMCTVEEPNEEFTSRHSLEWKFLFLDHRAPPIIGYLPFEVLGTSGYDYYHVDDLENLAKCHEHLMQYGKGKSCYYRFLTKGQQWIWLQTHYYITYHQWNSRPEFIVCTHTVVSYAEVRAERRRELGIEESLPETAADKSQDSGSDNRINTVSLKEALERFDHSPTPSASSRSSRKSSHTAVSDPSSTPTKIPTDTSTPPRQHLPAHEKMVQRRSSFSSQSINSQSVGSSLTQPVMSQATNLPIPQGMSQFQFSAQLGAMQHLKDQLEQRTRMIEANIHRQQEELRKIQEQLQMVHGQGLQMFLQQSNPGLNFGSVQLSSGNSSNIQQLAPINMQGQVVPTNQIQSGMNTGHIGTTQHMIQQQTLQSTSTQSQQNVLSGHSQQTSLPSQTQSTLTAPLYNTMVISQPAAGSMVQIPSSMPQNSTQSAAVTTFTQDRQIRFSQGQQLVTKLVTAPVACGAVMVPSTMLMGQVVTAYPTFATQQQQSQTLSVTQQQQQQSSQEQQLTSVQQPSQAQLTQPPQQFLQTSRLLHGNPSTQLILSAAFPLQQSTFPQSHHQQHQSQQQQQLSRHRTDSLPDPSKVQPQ
Briefly: co-IP; nuclear protein extracts of synchronized human OSCC cells across a circadian cycle; magnetic beads preloaded with anti-PER2, anti-CLOCK or anti-BMAL1 antibody (IgG as negative control), 4 °C for 4 h; Western blot; also in CRY1-knockdown or CRY2-knockdown CAL27 cells (complex significantly decreased).

The target in assay [2] is brain and muscle arnt-like 1 (BMAL1) (human (endogenous in OSCC cell lines)) (UniProt O00327). The description is as above.

“brain and muscle arnt-like 1 (BMAL1) (from UniProt O00327 1-626)”: the binding result in assay [1] is reported as “binds”.

B1: circadian locomotor output cycles kaput (CLOCK) (protein, UniProt O15516 1-846)
chain: MLFTVSCSKMSSIVDRDDSSIFDGLVEEDDKDKAKRVSRNKSEKKRRDQFNVLIKELGSMLPGNARKMDKSTVLQKSIDFLRKHKEITAQSDASEIRQDWKPTFLSNEEFTQLMLEALDGFFLAIMTDGSIIYVSESVTSLLEHLPSDLVDQSIFNFIPEGEHSEVYKILSTHLLESDSLTPEYLKSKNQLEFCCHMLRGTIDPKEPSTYEYVKFIGNFKSLNSVSSSAHNGFEGTIQRTHRPSYEDRVCFVATVRLATPQFIKEMCTVEEPNEEFTSRHSLEWKFLFLDHRAPPIIGYLPFEVLGTSGYDYYHVDDLENLAKCHEHLMQYGKGKSCYYRFLTKGQQWIWLQTHYYITYHQWNSRPEFIVCTHTVVSYAEVRAERRRELGIEESLPETAADKSQDSGSDNRINTVSLKEALERFDHSPTPSASSRSSRKSSHTAVSDPSSTPTKIPTDTSTPPRQHLPAHEKMVQRRSSFSSQSINSQSVGSSLTQPVMSQATNLPIPQGMSQFQFSAQLGAMQHLKDQLEQRTRMIEANIHRQQEELRKIQEQLQMVHGQGLQMFLQQSNPGLNFGSVQLSSGNSSNIQQLAPINMQGQVVPTNQIQSGMNTGHIGTTQHMIQQQTLQSTSTQSQQNVLSGHSQQTSLPSQTQSTLTAPLYNTMVISQPAAGSMVQIPSSMPQNSTQSAAVTTFTQDRQIRFSQGQQLVTKLVTAPVACGAVMVPSTMLMGQVVTAYPTFATQQQQSQTLSVTQQQQQQSSQEQQLTSVQQPSQAQLTQPPQQFLQTSRLLHGNPSTQLILSAAFPLQQSTFPQSHHQQHQSQQQQQLSRHRTDSLPDPSKVQPQ
Consider B1, for which, in assay [2], the binding entry is listed as “binds”.
